Source: article PMC12166272
These are yes or no findings as the source states them, for the method shown. Binding seen in cells or lysates may run through a third protein. Some entries that bind do so weakly or less than the wild type. Sequences can lack the tags named with a protein.

Chains of the proteins cited; added tags and fusions are not shown.
UniProt Q13547: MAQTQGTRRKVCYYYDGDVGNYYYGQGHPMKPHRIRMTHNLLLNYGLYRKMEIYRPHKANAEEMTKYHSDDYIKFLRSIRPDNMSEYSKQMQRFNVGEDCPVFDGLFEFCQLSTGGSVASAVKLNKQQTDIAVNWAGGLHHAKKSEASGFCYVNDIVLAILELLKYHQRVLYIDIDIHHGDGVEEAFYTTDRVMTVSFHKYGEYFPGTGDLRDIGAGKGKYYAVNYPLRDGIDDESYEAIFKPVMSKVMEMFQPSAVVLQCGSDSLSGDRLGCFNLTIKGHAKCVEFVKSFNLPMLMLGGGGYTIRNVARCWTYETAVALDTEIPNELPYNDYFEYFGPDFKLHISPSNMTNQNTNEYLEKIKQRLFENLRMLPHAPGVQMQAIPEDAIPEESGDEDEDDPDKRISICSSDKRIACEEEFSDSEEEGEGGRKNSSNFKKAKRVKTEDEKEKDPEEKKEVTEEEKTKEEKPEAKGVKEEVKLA
UniProt Q14653: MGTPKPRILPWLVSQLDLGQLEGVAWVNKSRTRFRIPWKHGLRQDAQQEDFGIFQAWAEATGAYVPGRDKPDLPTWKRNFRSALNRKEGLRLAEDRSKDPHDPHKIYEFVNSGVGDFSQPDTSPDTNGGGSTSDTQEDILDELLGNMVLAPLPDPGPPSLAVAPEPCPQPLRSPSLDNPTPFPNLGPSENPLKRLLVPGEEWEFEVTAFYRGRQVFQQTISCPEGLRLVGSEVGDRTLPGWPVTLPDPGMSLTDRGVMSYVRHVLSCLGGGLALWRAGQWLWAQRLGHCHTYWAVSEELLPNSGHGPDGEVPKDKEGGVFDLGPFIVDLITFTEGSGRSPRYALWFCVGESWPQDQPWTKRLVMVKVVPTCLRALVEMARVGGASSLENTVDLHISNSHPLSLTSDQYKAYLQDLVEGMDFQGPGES
UniProt Q13568: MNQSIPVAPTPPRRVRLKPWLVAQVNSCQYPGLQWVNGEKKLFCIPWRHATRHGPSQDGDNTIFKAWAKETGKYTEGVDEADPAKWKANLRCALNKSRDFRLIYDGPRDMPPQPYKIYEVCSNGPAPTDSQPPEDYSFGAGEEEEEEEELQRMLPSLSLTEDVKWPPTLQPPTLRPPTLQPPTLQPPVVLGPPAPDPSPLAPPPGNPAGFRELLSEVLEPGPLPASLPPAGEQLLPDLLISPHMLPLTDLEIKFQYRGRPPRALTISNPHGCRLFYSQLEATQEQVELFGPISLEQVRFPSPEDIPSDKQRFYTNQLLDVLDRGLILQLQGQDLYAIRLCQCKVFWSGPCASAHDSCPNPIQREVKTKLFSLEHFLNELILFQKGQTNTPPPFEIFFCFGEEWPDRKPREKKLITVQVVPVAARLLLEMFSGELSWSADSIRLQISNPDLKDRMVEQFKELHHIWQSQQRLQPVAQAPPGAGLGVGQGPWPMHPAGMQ

Experiments:
FLAG-IRF7-K375R = biological target: T1, FLAG-IRF7-K375R (UniProt Q92985); experiment: co-IP; whole-cell extracts of transfected cells (HEK293T) 24 h after transfection, NP-40 lysis buffer; antibody with Protein A/G beads 4 h at 4°C; washed with PBS with 0.1% NP40; immunoblot
T1 sequence: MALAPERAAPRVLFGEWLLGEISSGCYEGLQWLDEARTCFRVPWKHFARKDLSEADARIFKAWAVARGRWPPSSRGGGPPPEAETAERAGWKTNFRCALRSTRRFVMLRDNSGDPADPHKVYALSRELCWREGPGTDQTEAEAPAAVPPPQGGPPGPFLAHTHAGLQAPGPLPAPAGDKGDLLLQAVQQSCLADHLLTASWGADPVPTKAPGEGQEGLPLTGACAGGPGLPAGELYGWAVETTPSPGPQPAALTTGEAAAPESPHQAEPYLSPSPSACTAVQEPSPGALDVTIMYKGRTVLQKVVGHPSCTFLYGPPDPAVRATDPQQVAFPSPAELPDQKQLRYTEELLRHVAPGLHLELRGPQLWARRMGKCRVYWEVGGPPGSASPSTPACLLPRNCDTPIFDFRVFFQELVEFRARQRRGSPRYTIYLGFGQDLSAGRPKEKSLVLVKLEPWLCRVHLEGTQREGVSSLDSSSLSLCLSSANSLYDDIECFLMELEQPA

[1] = biological target: T2, NEURL3 (construct of the experiments of Figure S1; tag not told) (human) (UniProt Q96EH8); experiment: as above
T2 sequence: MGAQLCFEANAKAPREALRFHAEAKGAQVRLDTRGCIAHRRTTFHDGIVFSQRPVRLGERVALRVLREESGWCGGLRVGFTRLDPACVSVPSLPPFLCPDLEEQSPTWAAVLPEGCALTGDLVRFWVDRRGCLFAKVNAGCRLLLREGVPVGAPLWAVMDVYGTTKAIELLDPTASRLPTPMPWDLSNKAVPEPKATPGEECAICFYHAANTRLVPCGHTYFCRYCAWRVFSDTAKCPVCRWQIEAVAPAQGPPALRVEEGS

| Substance | binding (FLAG-IRF7-K375R) | binding [1] |
| --- | --- | --- |
| HA-HDAC1 (from UniProt Q13547 1-482) | binds | – |
| IRF3 (transfected, IRF family panel) (from UniProt Q14653 1-427) | – | binds |
| IRF5 (from UniProt Q13568 1-498) | – | binds weakly |
